Assay [1] has as its target recombinant human TfR1 (human) (UniProt P02786). The assay can be described thus: ELISA, conjugate against unconjugated Fab (FIGS. 11E, 11F). (ELISA stands for enzyme-linked immunosorbent assay.)
In assay [2] the target is recombinant cynomolgus monkey (Macaca fascicularis) TfR1 (cynomolgus monkey (Macaca fascicularis)). The description is as above.

Results are given in words; binding and its absence hold for the method and conditions named. Some results given as binding are weak or reduced against the parent protein; the word gives no strength.

B1: humanized anti-TfR Fab 5H12 VH5 (C33Y)/Vκ4 conjugated to DMPK-targeting oligonucleotide ASO300 (Fab, V domains shown)
VH: QVQLVQSGAEVKKPGASVKVSCKASGYSFTDYYINWVRQAPGQGLEWMGWIYPGSGNTRYSERFKGRVTITRDTSASTAYMELSSLRSEDTAVYYCAREDYYPYHGMDYWGQGTLVTVSS
VL: DIVMTQSPDSLAVSLGERATINCRASESVDGYDNSFMHWYQQKPGQPPKLLIFRASNLESGVPDRFSGSGSGTDFTLTISSLQAEDVAVYYCQQSSEDPWTFGQGTKLEIKR
modifications: oligonucleotide ASO300 conjugated to the Fab; chain and residue not stated
On to B1, for which the binding entry in assay [1] and in assay [2] was “binds” each time.

Source of the values: patent US20250249119A1.
